Some of the results follow. The main result of the screen is listed elsewhere. These columns were measured beside it and carry no call. The list favours compounds with an active or inconclusive main result. Words in brackets tell the shape of the fitted curve; partial curves, single points and poor fits give uncertain potencies.
Assay: qHTS Assay for Lipid Storage Modulators in Drosophila S3 Cells;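 for cell number change: cells counted by Cell Tracker Red CMTPX staining in the red channel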
Details: BODIPY lipid droplet fluorescence, 18-24 h; for cell number change: measured here: cell count max response, cells fed with added oleic acid
Procedure, shortened: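 Laser-scanning cytometry quantifies lipid droplet accumulation (500–530 nm total intensity; droplet/cell object ratio) in oleic acid-fed (400 uM added) Drosophila S3 cells treated with a concentration series. 20 uM Triacsin C defined 100% inhibition.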

[1] = measured here: lipid fluorescence (Fed channel) AC50, cells fed with added oleic acid
[2] = measured here: cell number channel AC50, cells fed with added oleic acid

Structure (SMILES)	cell number change	AC50 [1]	AC50 [2]
CN(C)c1nc(-c2ccccc2)[n+](C)s1	10.7%	–	–
CC(C(=O)Nc1ccc(Cl)cc1Cl)N1CC=C(c2ccccc2)CC1 (stereo not given)	-16.7%	7.31 µM [falling, partial curve]	–
COc1cc(CNCCc2c[nH]c3ccccc23)cc(OC)c1	-2.78%	6.51 µM [falling, single point]	6.51 µM [rising, single point]
Cc1ccc(Cn2cc(C=O)c(-c3ccc(C)cc3)n2)cc1	-58.2%	29.1 µM [falling, single point]	29.1 µM [falling, single point]
COC(=O)c1ccc(-n2c(C)nc3ccccc3c2=O)cc1	-13.2%	–	0.366 µM [rising, partial curve]
COC(=O)C1=C(c2cccc(OCc3ccccc3)c2)C[C@@H]2CC[C@H]1N2C(=O)NC1CCN(Cc2ccccc2)CC1	6.69%	0.00461 µM [rising, full curve, poor fit]	–
Cc1ccc(Cc2c(C)nc3nc(SCC(=O)N4CCC5(CC4)OCCO5)nn3c2C)cc1	16.9%	0.366 µM [falling, full curve]	0.82 µM [falling, full curve, poor fit]
O=C(Cn1cc(C(=O)c2ccccc2F)c2ccccc21)NCc1ccco1	185%	–	7.31 µM [rising, partial curve]
OC(c1ccccc1)(c1ccccc1)C1CN2CCC1CC2 (stereo not given)	28.3%	0.58 µM [rising, partial curve, poor fit]	0.103 µM [rising, full curve, poor fit]
CC1CCC(NCCc2ccc3c(c2)OCO3)CC1 (stereo not given)	-1.44%	–	–
CC(=O)C1(c2ccccc2)CCNCC1	-11.4%	4.11 µM [falling, full curve]	6.51 µM [falling, partial curve]
N/C(=N\[N+](=O)[O-])N1CCN(C(=O)Oc2ccccc2)CC1	-8.62%	29.1 µM [rising, single point]	–
CC(=O)NC1CC2CCCC(C1)N2 (stereo not given)	–	4.61 µM [rising, partial curve]	3.66 µM [rising, partial curve, poor fit]
CN(C)c1ccc(C(O)P(=O)(OCc2ccccc2)c2ccc(N(C)C)cc2)cc1 (stereo not given)	–	–	0.146 µM [rising, full curve, poor fit]
Cc1cccc(OCC(=O)N2CCN(Cc3ccc4c(c3)OCO4)CC2)c1	-0.704%	–	–
N#Cc1ccccc1Cn1cc(C(=O)c2cccs2)c2ccccc21	46.4%	2.91 µM [rising, partial curve]	1.46 µM [rising, partial curve]
O=C(COc1ccccc1)Nc1ccc(Cl)cc1C(=O)c1ccccc1	10.4%	0.411 µM [rising, full curve]	–
CCOc1cc2c(cc1OCC)-n1cccc1C(c1c(O)cccc1OC)NC2 (stereo not given)	–	6.51 µM [falling, single point]	3.66 µM [falling, single point]
CC(C(=O)c1cn(C)c2ccccc12)c1ccccc1 (stereo not given)	74.5%	–	–

Structure (SMILES)	cell number change	AC50 [1]	AC50 [2]
CCOP(=O)(OCC)C(NC(=O)C(Cl)Cl)C(Cl)(Cl)Cl (stereo not given)	-25%	29.1 µM [falling, single point]	–
CCOc1ccc(CC2C(=O)NC(=O)N(c3ccc(CC)cc3)C2=O)cc1 (stereo not given)	21.5%	18.4 µM [falling, partial curve]	–
O=C(CNC(=O)OCc1ccccc1)Nc1ccc(Br)cc1C(=O)c1ccccc1Cl	-3.35%	–	–
Cc1[nH]c2ccc(OC(F)(F)F)cc2c1CCNCc1ccc(Cl)cc1	-102%	20.6 µM [falling, partial curve]	18.4 µM [falling, partial curve]
Nc1ccc(N2CCN(Cc3ccccc3Cl)CC2)c(Cl)c1	–	6.51 µM [rising, single point]	–
Cc1nn(Cc2ccccc2)c(C)c1C(=O)OCC(=O)NC1CCS(=O)(=O)C1 (stereo not given)	-12.4%	–	–
Nc1ccnn1C1CCNCC1	-120%	29.1 µM [falling, single point]	29.1 µM [falling, single point]
O=c1[nH]c(=O)n(Cc2ccccc2)c(O)c1C=NCCCn1ccnc1	-1.63%	–	4.61 µM [rising, single point]
Clc1ccc2sc(C3CCNCC3)nc2c1	23.6%	29.1 µM [rising, single point]	–
COc1cc(/C=C/C(=O)c2c(O)n(CCc3ccccc3)c(=O)[nH]c2=O)ccc1O	-16.4%	–	–
COc1ccc(Cn2c(O)c(C=Nc3c(C)n(C)n(-c4ccccc4)c3=O)c(=O)[nH]c2=O)cc1	11.5%	32.6 µM [falling, single point]	–
CN(C)CCN=Cc1c(O)n(-c2cccc(C(F)(F)F)c2)c(=O)[nH]c1=O	15.4%	–	–
Brc1ccccc1	-35.9%	0.461 µM [falling, full curve]	0.0731 µM [falling, full curve]
Cc1noc(C)c1C(=O)N1CCC2(CC1)OCCO2	-11.5%	0.651 µM [falling, full curve, poor fit]	–
O=c1cccc2n1CC1CC2CN(S(=O)(=O)c2ccccc2)C1 (stereo not given)	–	0.651 µM [falling, single point]	–
Nc1c(C(=O)OCC2CCCO2)c2nc3ccccc3nc2n1Cc1cccs1 (stereo not given)	-30.8%	14.6 µM [falling, partial curve, poor fit]	10.3 µM [falling, partial curve]
CNC(=O)Oc1cccc(-c2cn3cc(OC(=O)NC)ccc3n2)c1	1.93%	18.4 µM [rising, single point]	–
CCC(C)N1C(=O)/C(=C\c2cnc(N(C)C)nc2)C(=O)NC1=S (stereo not given)	-45.4%	0.112 µM [falling, full curve, poor fit]	0.224 µM [falling, full curve, poor fit]
CCCCn1c(C)c(C(=O)OCC)c2c(CN3CCOCC3)c(O)ccc21	–	0.411 µM [rising, partial curve, poor fit]	–

Among those listed so far, 2 have a thiophene ring, fused or not:
Structure (SMILES)	cell number change	AC50 [1]	AC50 [2]
N#Cc1ccccc1Cn1cc(C(=O)c2cccs2)c2ccccc21	46.4%	2.91 µM [rising, partial curve]	1.46 µM [rising, partial curve]
Nc1c(C(=O)OCC2CCCO2)c2nc3ccccc3nc2n1Cc1cccs1 (stereo not given)	-30.8%	14.6 µM [falling, partial curve, poor fit]	10.3 µM [falling, partial curve]
